Most values lie at the floor of the assay. Slopes are relative: functional sequences can read slightly below zero.
tested on: Saccharomyces cerevisiae PS128 hsf1 delta, HSF1(1-493) fusion; assay: growth estimate (transactivation domain function in HSF1 fusion, heat-shock survival) (a.u. (slope of normalised read count over time)); higher = stronger growth at 37°C, i.e. more transactivation activity; conditions: library: random library

| Substance | growth estimate |
| --- | --- |
| FAEAPGRLFTSVEVRHRQFC | < -0.25 |
| HTCSRQRGNIERSGYTMGGL | < -0.25 |
| WKGNSLRLRVTCIRQEMRSQ | < -0.25 |
| RTSN | < -0.25 |
| DGNGAHSANTSSASRLDK | < -0.25 |
| RNAELYPIRIGLPQWGQAHT | < -0.25 |
| GALMSRC | < -0.25 |
| NTYGVR | < -0.25 |
| RTSAGDDAEKMLRREDRPQQ | < -0.25 |
| RAGRDYCLKNCCVRNVPSTP | -0.25 |
| AIK | < -0.25 |
| PYYRRHVRIAGLIRNVRRGQ | -0.137 |
| VPCPPEPWGYMLALRTLRTS | < -0.25 |
| DIRSS | < -0.25 |
| SGVMTPYTNSLRRRG | -0.246 |
| TIGSLSRSLLLGASISSCKR | < -0.25 |
| SPAAQAVGTHLQHVRRGVVQ | < -0.25 |
| PVSTLLGRGFGPLFERRLGS | < -0.25 |
| ARFMGQPCNRWAIYLSATGP | < -0.25 |
| CRSQS | < -0.25 |
| RGSRSPLQ | < -0.25 |
| SRGSICQYAVCRQE | < -0.25 |
| GCVQRTLL | < -0.25 |
| HGLSLYDQSDPYCQRIVHSF | < -0.25 |
| CPPRHMDSSVLGNQRLDPAS | < -0.25 |

| Substance | growth estimate |
| --- | --- |
| LGLLQWVDPQRRSLLVILHL | < -0.25 |
| AEI | < -0.25 |
| RFSNEFADEVMGIMGGLACP | < -0.25 |
| RDHGRINVAVPFIWRAMTRR | < -0.25 |
| LFPRKHAGRVAMLGIHTWVS | < -0.25 |
| WGRIASTRKYRLFDRVRLPL | < -0.25 |
| DTSYPDWSRRR | < -0.25 |
| VVIPSLLHVNTTLVCKKYMP | < -0.25 |
| VVGSVTVSPICF | < -0.25 |
| CTLTSGFWNLRLWTDDEGFS | < -0.25 |
| DRVGLILRSYARCRMRIIPR | < -0.25 |
| IKQLDQRARENFHNARITLG | < -0.25 |
| TRRPSRPSSISMIVPGLVSF | < -0.25 |
| KGLYYPENNRGHGLSAFVAA | < -0.25 |
| RRTGTQ | < -0.25 |
| TRKPLGLFCPEIEVPGEVWN | < -0.25 |
| ITREAWDGNRREVLKSSPTC | < -0.25 |
| ACAVVQKR | < -0.25 |
| CACGIRPFVEAV | < -0.25 |
| YLFTDSLWF | -0.187 |
| HHNSASTLITLKT | < -0.25 |
| PADIRVIRFKHITVMPLCS | < -0.25 |
| LCPEPQFSLWTS | < -0.25 |
| LSIKYEPVSLSKGFSAVERG | -0.228 |
| TGHEENSLTSKRSSFRQYTE | < -0.25 |

| Substance | growth estimate |
| --- | --- |
| QAREKDELPYPQAWGTRVLA | < -0.25 |
| LVKQAVDRVIMPVLVFAYGD | < -0.25 |
| LTPVYGSLSGCPRSLRWELN | < -0.25 |
| CAARRIRNSPMYPMSTRPPK | < -0.25 |
| RACSHHSGIKRIYSGLCSVH | < -0.25 |
| WTEGATGTRVRWHLSAGGK | < -0.25 |
| SVNDLHR | -0.245 |
| GSIRFVGHSGIQHAKQMNGH | < -0.25 |
| RGIGLSFWLGACRDISWHGV | < -0.25 |
| GFVL | -0.227 |
| RRHYPETMRALLFRNLTR | < -0.25 |
| RAFSKLRCRTWGSLVKVSGP | < -0.25 |
| RCCD | < -0.25 |
| NTSPRYEISHQGAGGIDGIT | < -0.25 |
| HVEAHRGIPVPPDRYTGIHS | < -0.25 |
| FSEQNVPLGYALSYAVV | < -0.25 |
| HPSRSCTLA | < -0.25 |
| KSGERRNTMSPLDNRQEQTQ | < -0.25 |
| IPPFPSTSVGIWGACLHSIW | < -0.25 |
| RSWPIAPGLQQ | < -0.25 |
| RRSKDV | < -0.25 |
| GVRCLEI | < -0.25 |
| CESQGGSKVSGQGTLAR | < -0.25 |
| GELGWSRLT | < -0.25 |
| ARVRRGLGWGGALGSVIRGR | < -0.25 |

| Substance | growth estimate |
| --- | --- |
| ETYDIRTLRGILKRTCCNPR | < -0.25 |
| MMVV | < -0.25 |
| GRH | < -0.25 |
| VFTRDCPVVWTKTSYLRMAE | < -0.25 |
| SNAGGFD | < -0.25 |
| FLF | < -0.25 |
| RERSIRIDGGQFKNSVGPAS | < -0.25 |
| WNAEIWLRRRGLIGDGTV | < -0.25 |
| GPPCGT | < -0.25 |
| CRLMFPLIPAGEVRELQRAS | < -0.25 |
| HGPGGF | < -0.25 |
| SYTRGGQYVTR | < -0.25 |
| GWMPLIAGVKSPTANSVILT | < -0.25 |
| AKDGYGDADELCGGGWVVIA | -0.222 |
| QSQRDAQQI | -0.178 |
| RYLSPECDLSRDEACGMGAC | < -0.25 |
| IASQRVIRMLSP | -0.239 |
| VNRQSVSHPPCKRMPCYAFR | < -0.25 |
| GPAASRTDNSGVFGKRAVRL | < -0.25 |
| PGGLKSAVSSLDNRLW | < -0.25 |
| IEAFKMGRRGCCAFIPKSFA | < -0.25 |
| SVIRGFVAVG | < -0.25 |
| IGSLPSLRPFLKNEATQRQA | < -0.25 |
| VQSTILGRLFGLGAPSMGVG | < -0.25 |
| GRLTPNNPISVCKQTNGGRP | < -0.25 |

| Substance | growth estimate |
| --- | --- |
| PKND | < -0.25 |
| AASPGVLVVTRALRLVLTPS | < -0.25 |
| ITRVLGICGSMRRAHTVYIE | < -0.25 |
| WITVDARRRSLTV | < -0.25 |
| PRVYHKGSIQGCWSQGIRPD | < -0.25 |
| QAGPRRARSTGRQNSATRGF | < -0.25 |
| GASRDLSFDLHGMTSPRAPS | < -0.25 |
| VTSLLLGVFFASLCQALTG | -0.219 |
| VLPDLSNALQIPTSRPS | < -0.25 |
| NRLRGQNVITECLNSAQ | < -0.25 |
| MTIQTDVWDKLAPPRSGQRL | < -0.25 |
| FVLGATVTIRGRFWACVTL | < -0.25 |
| LVLTRRSTTWLRYSSTQGWK | < -0.25 |
| LVKYEREAHVRCGCLLIYPV | < -0.25 |
| GCWYVVSKTFHQRMCNGDQS | < -0.25 |
| VWPCKGEGGYTTPSGCRPGT | < -0.25 |
| TLIVVRKLS | < -0.25 |
| PKVAAKGLIATCDMEG | < -0.25 |
| YVAGWQKPH | < -0.25 |
| VEVR | < -0.25 |
| LTRRHLKGPSFVTRNPSQHA | < -0.25 |
| VVTPEGMYGKDRSGWINLMK | < -0.25 |
| SSPGLRASGTGSSGGKPKEA | -0.25 |
| LTVYDCCPKPFCKSSS | < -0.25 |
| LLRVV | < -0.25 |

Quoted from above (59 entries):

| Substance | growth estimate |
| --- | --- |
| FSEQNVPLGYALSYAVV | < -0.25 |
| HPSRSCTLA | < -0.25 |
| KSGERRNTMSPLDNRQEQTQ | < -0.25 |
| IPPFPSTSVGIWGACLHSIW | < -0.25 |
| RSWPIAPGLQQ | < -0.25 |
| RRSKDV | < -0.25 |
| GVRCLEI | < -0.25 |
| CESQGGSKVSGQGTLAR | < -0.25 |
| GELGWSRLT | < -0.25 |
| ARVRRGLGWGGALGSVIRGR | < -0.25 |
| ETYDIRTLRGILKRTCCNPR | < -0.25 |
| MMVV | < -0.25 |
| GRH | < -0.25 |
| VFTRDCPVVWTKTSYLRMAE | < -0.25 |
| SNAGGFD | < -0.25 |
| FLF | < -0.25 |
| RERSIRIDGGQFKNSVGPAS | < -0.25 |
| WNAEIWLRRRGLIGDGTV | < -0.25 |
| GPPCGT | < -0.25 |
| CRLMFPLIPAGEVRELQRAS | < -0.25 |
| HGPGGF | < -0.25 |
| SYTRGGQYVTR | < -0.25 |
| GWMPLIAGVKSPTANSVILT | < -0.25 |
| AKDGYGDADELCGGGWVVIA | -0.222 |
| QSQRDAQQI | -0.178 |
| RYLSPECDLSRDEACGMGAC | < -0.25 |
| IASQRVIRMLSP | -0.239 |
| VNRQSVSHPPCKRMPCYAFR | < -0.25 |
| GPAASRTDNSGVFGKRAVRL | < -0.25 |
| PGGLKSAVSSLDNRLW | < -0.25 |
| IEAFKMGRRGCCAFIPKSFA | < -0.25 |
| SVIRGFVAVG | < -0.25 |
| IGSLPSLRPFLKNEATQRQA | < -0.25 |
| VQSTILGRLFGLGAPSMGVG | < -0.25 |
| GRLTPNNPISVCKQTNGGRP | < -0.25 |
| PKND | < -0.25 |
| AASPGVLVVTRALRLVLTPS | < -0.25 |
| ITRVLGICGSMRRAHTVYIE | < -0.25 |
| WITVDARRRSLTV | < -0.25 |
| PRVYHKGSIQGCWSQGIRPD | < -0.25 |
| QAGPRRARSTGRQNSATRGF | < -0.25 |
| GASRDLSFDLHGMTSPRAPS | < -0.25 |
| VTSLLLGVFFASLCQALTG | -0.219 |
| VLPDLSNALQIPTSRPS | < -0.25 |
| NRLRGQNVITECLNSAQ | < -0.25 |
| MTIQTDVWDKLAPPRSGQRL | < -0.25 |
| FVLGATVTIRGRFWACVTL | < -0.25 |
| LVLTRRSTTWLRYSSTQGWK | < -0.25 |
| LVKYEREAHVRCGCLLIYPV | < -0.25 |
| GCWYVVSKTFHQRMCNGDQS | < -0.25 |
| VWPCKGEGGYTTPSGCRPGT | < -0.25 |
| TLIVVRKLS | < -0.25 |
| PKVAAKGLIATCDMEG | < -0.25 |
| YVAGWQKPH | < -0.25 |
| VEVR | < -0.25 |
| LTRRHLKGPSFVTRNPSQHA | < -0.25 |
| VVTPEGMYGKDRSGWINLMK | < -0.25 |
| SSPGLRASGTGSSGGKPKEA | -0.25 |
| LTVYDCCPKPFCKSSS | < -0.25 |

Remaining list, next part:

| Substance | growth estimate |
| --- | --- |
| GIFDRTRICTDALLGDQRLI | < -0.25 |
| LCTTQRPAKRELTAGKSVHS | < -0.25 |
| PYSGDGKKTCTIRRPH | < -0.25 |
| RRLITQ | < -0.25 |
| CMSLEQRDGMICSQECRGIT | < -0.25 |
| VPQDECRRLTQGSARNGGMM | < -0.25 |
| HRGTESS | < -0.25 |
| FSLDSRVR | < -0.25 |
| LYACGAIALVREVDLARLA | < -0.25 |
| GCHSEVAGLKNLNTMARTPS | < -0.25 |
| QEWVCGRQ | < -0.25 |
| ATEVGR | < -0.25 |
| LTCRQRGG | -0.242 |
| PLVRRVTRTLL | < -0.25 |
| GRNPNGPQSEIPTAPVTGKC | < -0.25 |
| YPWDPAPMR | < -0.25 |
| LGSGAQKMAPP | -0.231 |
| SKTFAHLTKQLSFGYDKPSN | < -0.25 |
| YVDTRRSLRGSTRHSHWTPV | < -0.25 |
| LVLT | < -0.25 |
| RCS | < -0.253 |
| ARFSDPRQDLCPVPSP | < -0.25 |
| ARAMIQ | < -0.25 |
| VTCSHLSQHSMRGFRGLSAS | < -0.25 |
| RWGCFC | < -0.25 |

| Substance | growth estimate |
| --- | --- |
| VIGTLSGVRPQSTEVSWK | < -0.25 |
| SLACHVTRQTEESI | < -0.25 |
| NLSRHGKITDLHSTYPFCCE | 0.156 |
| SQRVQSHVVAAA | < -0.25 |
| MRHTFLRFISMCVGQGLRIA | < -0.25 |
| GIYV | < -0.25 |
| DAYA | -0.248 |
| SLSRQWRG | < -0.25 |
| QSRLDSGTRNIQWHLVASRS | < -0.25 |
| LGRKSARRGYFRVGGFEKPA | < -0.25 |
| VRLTGELADVPVTPVRIENR | < -0.25 |
| VLDYPETLSPSPITFFAAES | -0.25 |
| LGREPTWKVRRYVGIPPSV | < -0.25 |
| RTPLSQY | < -0.25 |
| TFPSFRVVPASLTLNDP | < -0.25 |
| TVPRKTKKKAAEEISGRGPR | < -0.25 |
| ASRRCCQVQRAAVWRCVSRP | < -0.25 |
| LTRRVSGARGIGARAGRPEG | < -0.25 |
| LAVKTAYKLMPLLATIRFSA | < -0.25 |
| LLIEPLRPA | < -0.25 |
| TRR | < -0.25 |
| YDVIPNTYSTIQFPFGCRVF | < -0.25 |
| NSKRQGTGLREIGLNSVIIR | < -0.25 |
| VSSERALGGTLSEQGQGYGD | < -0.25 |
| SLVVAYRKRCVCGASVR | < -0.25 |

| Substance | growth estimate |
| --- | --- |
| QQVKTSW | < -0.25 |
| DVGLDLVNVNVQVL | < -0.25 |
| SGEAILKPVRANDSTEKTVS | < -0.25 |
| PDGYYPLSI | < -0.25 |
| DPYADYG | < -0.25 |
| KVDCLLLLIFTCLCFISRVI | < -0.25 |
| SDSFVGLGQ | < -0.25 |
| LEPTKGASIHEAKVQAKLVC | < -0.25 |
| ASILYSLMADRDQ | < -0.25 |
| SVIGGPVSVAGA | < -0.25 |
| TGVSAVVTVGAL | < -0.25 |
| TPRRSNHAEAETPLRKLTRR | < -0.25 |
| WQEFRQLTRGFGGTYSSIDA | < -0.25 |
| RRTNDHTRNLYLPNMSVKHH | < -0.25 |
| GVISQ | < -0.25 |
| GHSLKPATTSGGGSLWIQRR | < -0.25 |
| DAGLRGSEPPGPH | < -0.25 |
| IMSQRIY | < -0.25 |
| WTIIKEGPVLSHAGVQDDDL | < -0.25 |
| RSVTIWYMQGDADGGRDPDG | < -0.25 |
| NHCGNNASNRLPVPVSTVFS | < -0.25 |
